Experimental findings from PMC6035183, “ETS transcription factors induce a unique UV damage signature that drives recurrent mutagenesis in melanoma” are described below.

A weaker result is weaker than the reference pair of the same experiment. Tags and fusion partners may be left off the protein sequences shown.

The target in data set [1] is T1, ETS1 (ETS1ΔN280) (UniProt P27577).
T1 sequence (looked up, limits assumed): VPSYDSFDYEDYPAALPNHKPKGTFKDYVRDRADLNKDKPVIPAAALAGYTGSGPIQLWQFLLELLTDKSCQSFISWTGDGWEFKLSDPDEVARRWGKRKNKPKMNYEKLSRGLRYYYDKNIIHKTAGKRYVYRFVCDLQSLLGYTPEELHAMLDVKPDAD
Nature of the data set: EMSA. The note with it: 25 mM Tris-Cl pH 7.9, 10% glycerol, 6 mM MgCl2, 0.5 mM EDTA, 60 mM KCl, 0.5 mM DTT, 200 ug/ml BSA, 40 ul, 40 min on ice, 8% native PAGE, recombinant protein. (In general: A gel shift assay detects complexes by their altered migration in electrophoresis.)

The target of data set [2] is T1, ETS1 (ETS1ΔN280). As to the kind of experiment: footprinting (UV photofootprint, T4 endonuclease V). The note with it: 25 mM Tris-Cl pH 7.9, 10% glycerol, 6 mM MgCl2, 0.5 mM EDTA, 60 mM KCl, 0.5 mM DTT, 200 ug/ml BSA, 40 ul, 40 min on ice, 8% native PAGE, recombinant protein.

For “CTCGACTTCCGGTTCACCCAGCATTTGATCTTCCCTGTT (double strand) [SDHD-mt2]”, the binding result in the data set with ETS1 (ETS1ΔN280) [1] (shift pattern altered at higher ETS1, low-affinity motif-2 lost, motif-1 intact, 5'-biotin on S20, label: 5'-32P on S19) is “binds more weakly”; with ETS1 (ETS1ΔN280) [2] (CPD induction at motif-2 (sites #2, #3) abolished, 5'-biotin on S20, label: 5'-32P on S19), “binds more weakly”.

Regarding “CTCGACTTGAGGTTCACCCAGCATTTCCTCTTCCCTGTT (double strand) [SDHD-mt1]”, the binding result is “binds more weakly” with ETS1 (ETS1ΔN280) [1] (significantly reduced binding at low ETS1, 5'-biotin on S18, label: 5'-32P on S17) and “binds more weakly” in the data set with ETS1 (ETS1ΔN280) [2] (CPD induction at motif-1 (site #1) abolished, 5'-biotin on S18, label: 5'-32P on S17).
